Experiment [1] addresses T1, DDX21 (endogenous) (human) (UniProt Q9NR30).
T1 sequence: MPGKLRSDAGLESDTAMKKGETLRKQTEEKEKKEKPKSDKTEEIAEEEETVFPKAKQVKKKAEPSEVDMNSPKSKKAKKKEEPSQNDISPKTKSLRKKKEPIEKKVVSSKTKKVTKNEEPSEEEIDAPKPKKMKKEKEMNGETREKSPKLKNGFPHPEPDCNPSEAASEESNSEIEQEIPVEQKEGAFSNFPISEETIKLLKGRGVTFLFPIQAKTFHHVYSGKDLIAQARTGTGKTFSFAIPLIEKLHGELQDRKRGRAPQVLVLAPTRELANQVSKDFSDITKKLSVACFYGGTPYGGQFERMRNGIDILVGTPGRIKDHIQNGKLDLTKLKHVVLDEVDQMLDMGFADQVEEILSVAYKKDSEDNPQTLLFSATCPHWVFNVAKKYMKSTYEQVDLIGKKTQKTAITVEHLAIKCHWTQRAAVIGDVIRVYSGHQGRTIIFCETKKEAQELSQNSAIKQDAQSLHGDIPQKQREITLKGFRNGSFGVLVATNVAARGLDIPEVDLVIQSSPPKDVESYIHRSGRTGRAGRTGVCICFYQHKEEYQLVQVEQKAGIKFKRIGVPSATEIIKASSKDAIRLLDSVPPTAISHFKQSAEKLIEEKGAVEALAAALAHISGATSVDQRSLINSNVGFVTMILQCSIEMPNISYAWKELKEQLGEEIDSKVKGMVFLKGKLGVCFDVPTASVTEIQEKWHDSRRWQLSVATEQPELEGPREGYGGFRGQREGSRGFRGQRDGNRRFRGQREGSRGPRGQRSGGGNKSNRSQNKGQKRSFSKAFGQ
Nature of the experiment: co-IP.

Amino acid sequences for entries named in this document (tags omitted).
UniProt Q13547: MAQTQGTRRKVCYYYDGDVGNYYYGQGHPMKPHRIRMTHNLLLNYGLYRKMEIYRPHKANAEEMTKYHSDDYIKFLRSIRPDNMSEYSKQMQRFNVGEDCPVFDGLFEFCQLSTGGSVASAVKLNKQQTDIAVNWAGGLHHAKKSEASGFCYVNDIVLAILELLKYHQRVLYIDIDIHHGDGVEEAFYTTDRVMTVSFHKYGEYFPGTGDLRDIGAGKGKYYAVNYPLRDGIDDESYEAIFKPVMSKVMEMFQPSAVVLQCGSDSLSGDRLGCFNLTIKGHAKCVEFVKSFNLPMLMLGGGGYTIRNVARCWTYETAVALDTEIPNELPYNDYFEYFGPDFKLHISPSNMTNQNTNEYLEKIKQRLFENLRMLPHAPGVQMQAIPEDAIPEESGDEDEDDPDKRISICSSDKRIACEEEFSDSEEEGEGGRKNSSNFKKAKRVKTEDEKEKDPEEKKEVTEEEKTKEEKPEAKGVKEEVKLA
UniProt P70288: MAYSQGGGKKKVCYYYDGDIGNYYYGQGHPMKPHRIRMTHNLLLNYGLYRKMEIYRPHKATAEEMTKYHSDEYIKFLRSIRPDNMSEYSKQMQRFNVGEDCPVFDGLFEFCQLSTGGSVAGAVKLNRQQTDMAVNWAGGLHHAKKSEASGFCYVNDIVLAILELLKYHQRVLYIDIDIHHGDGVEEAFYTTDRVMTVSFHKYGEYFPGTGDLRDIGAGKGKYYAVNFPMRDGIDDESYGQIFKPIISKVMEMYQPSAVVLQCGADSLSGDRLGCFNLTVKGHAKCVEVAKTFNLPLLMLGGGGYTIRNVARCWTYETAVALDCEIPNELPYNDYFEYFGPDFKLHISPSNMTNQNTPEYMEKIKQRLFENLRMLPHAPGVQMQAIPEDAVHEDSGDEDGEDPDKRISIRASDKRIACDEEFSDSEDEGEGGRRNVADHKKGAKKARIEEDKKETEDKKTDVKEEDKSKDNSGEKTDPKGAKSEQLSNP
UniProt O09106: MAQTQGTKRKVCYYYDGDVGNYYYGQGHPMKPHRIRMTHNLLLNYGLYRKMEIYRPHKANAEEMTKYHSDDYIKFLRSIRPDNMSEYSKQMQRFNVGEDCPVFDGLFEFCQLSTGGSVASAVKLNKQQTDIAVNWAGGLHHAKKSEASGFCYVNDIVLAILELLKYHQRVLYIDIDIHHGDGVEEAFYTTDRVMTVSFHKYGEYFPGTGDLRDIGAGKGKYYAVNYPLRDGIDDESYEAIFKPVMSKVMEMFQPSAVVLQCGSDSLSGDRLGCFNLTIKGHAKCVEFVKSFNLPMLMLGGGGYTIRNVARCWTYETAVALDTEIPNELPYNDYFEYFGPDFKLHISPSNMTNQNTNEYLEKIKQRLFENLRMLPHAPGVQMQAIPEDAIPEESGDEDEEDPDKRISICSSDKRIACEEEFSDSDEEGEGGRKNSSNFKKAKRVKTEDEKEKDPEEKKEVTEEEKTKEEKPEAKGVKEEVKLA
UniProt Q92769: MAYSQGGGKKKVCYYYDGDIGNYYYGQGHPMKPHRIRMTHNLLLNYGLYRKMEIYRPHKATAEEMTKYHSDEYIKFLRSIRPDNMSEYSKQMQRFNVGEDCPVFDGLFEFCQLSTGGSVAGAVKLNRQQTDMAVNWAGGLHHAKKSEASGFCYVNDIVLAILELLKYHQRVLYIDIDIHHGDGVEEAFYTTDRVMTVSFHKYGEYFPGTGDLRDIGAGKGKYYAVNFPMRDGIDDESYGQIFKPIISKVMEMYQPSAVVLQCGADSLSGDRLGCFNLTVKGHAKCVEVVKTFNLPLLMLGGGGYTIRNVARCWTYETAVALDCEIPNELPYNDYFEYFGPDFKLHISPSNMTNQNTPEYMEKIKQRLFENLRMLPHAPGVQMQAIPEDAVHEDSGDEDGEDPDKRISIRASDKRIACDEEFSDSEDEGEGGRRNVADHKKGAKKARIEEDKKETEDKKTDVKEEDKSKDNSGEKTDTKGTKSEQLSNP

The target of experiment [2] is T2, recombinant DDX21 protein (full-length human DDX21, 6xHis-TEV) (human) (UniProt Q9NR30).
T2 sequence: T1 sequence
Briefly: pull-down.

Experiment [3] has as its target T3, Ddx21 (mouse, endogenous) (mouse (endogenous in fetal liver LK cells)) (UniProt Q9JIK5).
T3 sequence: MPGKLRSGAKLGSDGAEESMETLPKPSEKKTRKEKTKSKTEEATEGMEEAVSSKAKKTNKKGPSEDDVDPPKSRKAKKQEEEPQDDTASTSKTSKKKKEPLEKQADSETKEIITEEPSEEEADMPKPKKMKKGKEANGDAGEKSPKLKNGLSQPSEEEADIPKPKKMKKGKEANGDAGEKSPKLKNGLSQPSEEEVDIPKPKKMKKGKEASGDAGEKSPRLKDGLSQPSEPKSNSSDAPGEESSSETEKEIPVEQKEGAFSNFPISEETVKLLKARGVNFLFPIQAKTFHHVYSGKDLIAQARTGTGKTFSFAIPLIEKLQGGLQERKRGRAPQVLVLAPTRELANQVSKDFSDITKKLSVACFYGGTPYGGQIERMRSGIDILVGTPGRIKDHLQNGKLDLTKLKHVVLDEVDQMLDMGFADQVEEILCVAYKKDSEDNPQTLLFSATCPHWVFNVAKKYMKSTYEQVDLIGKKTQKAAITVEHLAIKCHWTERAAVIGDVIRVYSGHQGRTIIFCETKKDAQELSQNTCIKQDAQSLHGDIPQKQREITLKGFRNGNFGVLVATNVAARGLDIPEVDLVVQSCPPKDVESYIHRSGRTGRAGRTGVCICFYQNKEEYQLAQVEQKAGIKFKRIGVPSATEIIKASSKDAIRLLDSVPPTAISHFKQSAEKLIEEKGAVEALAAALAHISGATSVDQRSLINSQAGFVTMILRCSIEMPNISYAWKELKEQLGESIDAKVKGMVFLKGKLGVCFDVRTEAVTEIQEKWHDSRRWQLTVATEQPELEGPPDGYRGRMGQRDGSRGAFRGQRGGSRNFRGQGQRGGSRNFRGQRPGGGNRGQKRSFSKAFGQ
Briefly: proximity ligation.

Experiment [4] has as its target T4, Flag-DDX21 (human) (UniProt Q9NR30).
T4 sequence: T1 sequence
Nature of the experiment: co-IP.

No constants are given. Whether binding was seen depends on the method and setting. For some of these results: Binding seen in cells or lysates may run through a third protein. Some binding calls cover weakened binding; strength is not graded here. For some of these results: Tags and fused reporters may be left off the sequences shown.

On to “HDAC1 (endogenous) (from UniProt Q13547 1-482) (enzyme)”, for which the binding result in experiment [1] is on record as “binds”.

In the case of “HDAC1 (BPS Bioscience, 50051) (from UniProt Q13547 1-482) (enzyme)”, in experiment [2], the binding entry is “binds”. For the molecule “Hdac2 (mouse, endogenous) (from UniProt P70288 1-488) (enzyme)”, in experiment [3], the binding result is listed as “binds”. As to “HDAC1-V5 (from UniProt Q13547 1-482) (enzyme)”, the binding entry in experiment [4] was “binds”. As to “Hdac1 (mouse, endogenous) (from UniProt O09106 1-482) (enzyme)”, the binding result in experiment [3] was “binds”. Consider “HDAC2-V5 (from UniProt Q92769 1-488) (enzyme)”, for which the binding result in experiment [4] is listed as “binds”.

B1: Sin3a (mouse, endogenous) (protein, UniProt Q60520 1-1274)
chain: MKRRLDDQESPVYAAQQRRIPGSTEAFSHQHRVLAPAPPVYEAVSETMQSATGIQYSVAPNYQVSAVPQSSGSHGPAIAAVHSSHHHPTAVQPHGGQVVQSHAHPAPPVAPVQGQQQFQRLKVEDALSYLDQVKLQFGSQPQVYNDFLDIMKEFKSQSIDTPGVISRVSQLFKGHPDLIMGFNTFLPPGYKIEVQTNDMVNVTTPGQVHQIPTHGIQPQPQPPPQHPSQPSSQSAPTPAQPAPQPTAAKVSKPSQLQAHTPASQQTPPLPPYASPRSPPVQPHTPVTISLGTAPSLQNNQPVEFNHAINYVNKIKNRFQGQPDIYKAFLEILHTYQKEQRNAKEAGGNYTPALTEQEVYAQVARLFKNQEDLLSEFGQFLPDANSSVLLSKTTAEKVDSVRNDHGGTVKKPQLNNKPQRPSQNGCQIRRHSGTGATPPVKKKPKLMSLKESSMADASKHGVGTESLFFDKVRKALRSAEAYENFLRCLVIFNQEVISRAELVQLVSPFLGKFPELFNWFKNFLGYKESVHLESFPKERATEGIAMEIDYASCKRLGSSYRALPKSYQQPKCTGRTPLCKEVLNDTWVSFPSWSEDSTFVSSKKTQYEEHIYRCEDERFELDVVLETNLATIRVLEAIQKKLSRLSAEEQAKFRLDNTLGGTSEVIHRKALQRIYADKAADIIDGLRKNPSIAVPIVLKRLKMKEEEWREAQRGFNKVWREQNEKYYLKSLDHQGINFKQNDTKVLRSKSLLNEIESIYDERQEQATEENAGVPVGPHLSLAYEDKQILEDAAALIIHHVKRQTGIQKEDKYKIKQIMHHFIPDLLFAQRGDLSDVEEEEEEEMDVDEATGAPKKHNGVGGSPPKSKLLFSNTAAQKLRGMDEVYNLFYVNNNWYIFMRLHQILCLRLLRICSQAERQIEEENREREWEREVLGIKRDKSDSPAIQLRLKEPMDVDVEDYYPAFLDMVRSLLDGNIDSSQYEDSLREMFTIHAYIAFTMDKLIQSIVRQLQHIVSDEVCVQVTDLYLAENNNGATGGQLNSQTSRSLLESAYQRKAEQLMSDENCFKLMFIQSQGQVQLTVELLDTEEENSDDPVEAERWSDYVERYMSSDTTSPELREHLAQKPVFLPRNLRRIRKCQRGREQQEKEGKEGNSKKTMENVESLDKLECRFKLNSYKMVYVIKSEDYMYRRTALLRAHQSHERVSKRLHQRFQAWVDKWTKEHVPREMAAETSKWLMGEGLEGLVPCTTTCDTETLHFVSINKYRVKYGTVFKAP
Take B1: in experiment [3], the binding result is recorded as “binds”.

The values are drawn from paper doi:10.1101/2025.09.04.674186.
